Measurements taken from PubChem BioAssay AID493036 (Sanford-Burnham Center for Chemical Genomics, 2011).
The list shows a part of the results.

experiment: NTR1-driven beta-arrestin-GFP spot formation – imaging, U2OS cells, high content, primary screen (AID 493036) (AID 493036); conditions: agonist mode, measured here: cell count, cytotoxicity flag, at 20 µM

SMILES	cell count
CCC(CO)(C(=O)OC1CN2CCC1CC2)c1ccccc1 (configuration not stated)	48 cells
COc1cc(OC)cc(C(=O)NCC2(N3CCOCC3)CCCCC2)c1	45 cells
COc1cccc(C(=O)N(c2cc(C)cc(C)c2)C2CCN(C(=O)OC(C)(C)C)CC2)c1	95 cells
CCCOc1ccc(C)cc1CN(CCCl)CCCl	52 cells
CN1CCC(Nc2ccc(Cl)cc2)CC1	73 cells
CN1CCC(Nc2ccc(F)c(Cl)c2)CC1	69 cells
CCOc1ncccc1C(=O)NCC1(N2CCOCC2)CCCCC1	81 cells
CCCOc1ccc(C(=O)NCC2(N(C)C)CCCCC2)cc1	49 cells
O=C(O)C1(Nc2ccccc2)CCN(Cc2ccccc2)CC1	101 cells
CC(C)(C)OC(=O)N1CCC(Nc2ccccc2)CC1	29 cells
CCN1CCC(Nc2cccc(F)c2)CC1	45 cells
CN(C)c1ccc(C(=O)NCC2(N3CCCCC3)CCCCC2)cc1	65 cells
O=C(NCC1(N2CCCCC2)CCCCC1)c1ccco1	56 cells
COc1cc(OC)cc(C(=O)NCC2(N3CCCCC3)CCCCC2)c1	52 cells
Fc1ccccc1NC1CCN(Cc2ccccc2)CC1	50 cells
Cc1ccc(C(=O)NCC2(N3CCCCC3)CCCCC2)o1	83 cells
CCCN1CCC(Nc2cc(OC)cc(OC)c2)CC1	54 cells
c1ccc(CN2CCC(Nc3ccccc3)CC2)cc1	49 cells
CN(C)C1(CNC(=O)c2cccc(C#N)c2)CCCCC1	111 cells
CC(C)(C)OC(=O)N1CCC(N(C(=O)c2ccccc2)c2ccc(Cl)cc2)CC1	60 cells
N#Cc1ccc(C(=O)NCC2(N3CCCCC3)CCCCC2)cc1	64 cells
N/C(=N\O)c1c(N)no[n+]1[O-]	61 cells
CCOC(=O)N1CCC(Nc2ccc(C)cc2)CC1	74 cells

SMILES	cell count
O=C(OC1CN2CCC1CC2)C1c2ccccc2C=Cc2ccccc21 (configuration not stated)	44 cells
CCc1cc(C(=O)NCC2(N3CCCCC3)CCCCC2)sc1C	74 cells
O=C(NCC1(N2CCOCC2)CCCCC1)c1cc(Br)ccc1Cl	58 cells
COc1cc(C(=O)NCC2(N3CCOCC3)CCCCC2)cc(OC)c1C	56 cells
COc1ccc(C(=O)NCC2(N3CCOCC3)CCCCC2)cc1OC	41 cells
O=C(NCC1(N2CCCCC2)CCCCC1)c1cncc(Br)c1	61 cells
CN1CCC(Nc2cccc(F)c2)CC1	63 cells
CN(C)c1cccc(C(=O)NCC2(N3CCCCC3)CCCCC2)c1	68 cells
COc1ccc(CN(CCCl)CCCl)cc1Cl	45 cells
CC(C)c1ccc(NC2CCN(C(=O)OC(C)(C)C)CC2)cc1	62 cells
O=C(NCC1(N2CCOCC2)CCCCC1)c1cc(F)c(F)cc1Cl	41 cells
COc1cc(OC)c(C(=O)NCC2(N(C)C)CCCCC2)cc1OC	95 cells
O=C(NCC1(N2CCCCC2)CCCCC1)c1cccc(C(F)(F)F)c1	53 cells
CN1CCN(CCOC(=O)C(O)(c2ccccc2)c2ccccc2)CC1	60 cells
COc1ccc(NC2CCN(C(=O)OC(C)(C)C)CC2)cc1	45 cells
CC(C)c1ccc(C(=O)NCC2(N3CCOCC3)CCCCC2)cc1	51 cells
COc1cc(C(=O)NCC2(N3CCCCC3)CCCCC2)ccc1OC(F)F	46 cells
O=C(NCC1(N2CCOCC2)CCCCC1)c1cc(=O)[nH]c2ccccc12	45 cells
O=C(NCC1(N2CCCCC2)CCCCC1)c1ccc(OC(F)F)cc1	34 cells
CSc1ccc(C(=O)NCC2(N3CCOCC3)CCCCC2)cc1	57 cells
O=C(NCC1(N2CCCCC2)CCCCC1)c1cccc([N+](=O)[O-])c1	27 cells
N#CC1(Nc2ccccc2)CCN(CCc2ccccc2)CC1	46 cells
CCN1CCC(Nc2ccc(Cl)cc2)CC1	60 cells

SMILES	cell count
Cc1ccc(OCC(C)C)c(CN(CCCl)CCCl)c1	40 cells
CCOC(=O)N1CCC(Nc2cccc(C)c2)CC1	59 cells
CCOc1ccc(C)cc1CN(CCCl)CCCl	53 cells
COc1ccc(NC2CCN(CCc3ccccc3)CC2)c(OC)c1	59 cells
CCOC(=O)N1CCC(Nc2ccc(F)cc2)CC1	57 cells
O=C(NCC1(N2CCCCC2)CCCCC1)c1ccc(F)cc1	47 cells
CCCCOc1ccc(C(=O)NCC2(N3CCOCC3)CCCCC2)cc1	74 cells
O=C(NCC1(N2CCOCC2)CCCCC1)c1cc2ccccc2o1	38 cells
Cc1cc(C)cc(N(C(=O)c2ccccc2)C2CCN(C(=O)OC(C)(C)C)CC2)c1	73 cells
O=C(NCC1(N2CCCCC2)CCCCC1)c1ccc(Cl)nc1	52 cells
CCOC(=O)N1CCC(Nc2ccc(OC)cc2)CC1	79 cells
COc1ccc(Cl)cc1C(=O)NCC1(N2CCOCC2)CCCCC1	52 cells
O=C(OC1CN2CCC1CC2)C1c2ccccc2Oc2ccccc21 (configuration not stated)	64 cells
N#CC1(Nc2ccccc2)CCN(Cc2ccccc2)CC1	50 cells
O=C(NCC1(N2CCCCC2)CCCCC1)c1ccc(Cl)s1	44 cells
O=C(NCC1(N2CCCCC2)CCCCC1)c1cccs1	53 cells
O=C(NCC1(N2CCCCC2)CCCCC1)c1ccc(=O)[nH]c1	56 cells
COc1ccc(C(=O)NCC2(N3CCCCC3)CCCCC2)c(OC)c1OC	49 cells
CC(C)(C)OC(=O)N1CCC(N(C(=O)c2ccccc2)c2ccc(F)cc2)CC1	82 cells
COc1ccc(C(=O)NCC2(N3CCCCC3)CCCCC2)cc1	50 cells
CSc1ccccc1C(=O)NCC1(N2CCCCC2)CCCCC1	57 cells
